The target of this experiment is AMPK-α1 (human (endogenous in melanoma cell lines)) (UniProt Q13131). Kind of experiment: affinity purification with mass spectrometry; anti-AMPK-α1 immunoprecipitates of A2058 (Cy3) and A2058BR (Cy5) cells; 2D-DIGE and MALDI-TOF MS, MASCOT search.

Protein sequences, listed by entry. Tags and fused reporters are not part of them.
UniProt Q13131: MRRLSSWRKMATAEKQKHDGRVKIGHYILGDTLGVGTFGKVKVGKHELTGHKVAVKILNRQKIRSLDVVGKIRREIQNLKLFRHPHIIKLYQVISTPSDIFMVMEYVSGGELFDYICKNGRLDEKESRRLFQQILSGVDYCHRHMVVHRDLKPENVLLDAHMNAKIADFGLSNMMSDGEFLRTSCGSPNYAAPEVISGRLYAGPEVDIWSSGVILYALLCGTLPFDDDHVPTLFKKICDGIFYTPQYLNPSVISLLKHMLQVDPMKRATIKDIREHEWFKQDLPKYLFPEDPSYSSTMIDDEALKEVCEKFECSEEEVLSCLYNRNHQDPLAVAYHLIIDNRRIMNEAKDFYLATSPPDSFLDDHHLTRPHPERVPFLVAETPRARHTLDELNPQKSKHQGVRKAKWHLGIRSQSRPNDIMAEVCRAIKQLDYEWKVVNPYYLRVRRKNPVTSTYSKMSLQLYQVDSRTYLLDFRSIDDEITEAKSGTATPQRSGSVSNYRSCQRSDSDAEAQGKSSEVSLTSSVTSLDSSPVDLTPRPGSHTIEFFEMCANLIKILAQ
UniProt Q7L0R7: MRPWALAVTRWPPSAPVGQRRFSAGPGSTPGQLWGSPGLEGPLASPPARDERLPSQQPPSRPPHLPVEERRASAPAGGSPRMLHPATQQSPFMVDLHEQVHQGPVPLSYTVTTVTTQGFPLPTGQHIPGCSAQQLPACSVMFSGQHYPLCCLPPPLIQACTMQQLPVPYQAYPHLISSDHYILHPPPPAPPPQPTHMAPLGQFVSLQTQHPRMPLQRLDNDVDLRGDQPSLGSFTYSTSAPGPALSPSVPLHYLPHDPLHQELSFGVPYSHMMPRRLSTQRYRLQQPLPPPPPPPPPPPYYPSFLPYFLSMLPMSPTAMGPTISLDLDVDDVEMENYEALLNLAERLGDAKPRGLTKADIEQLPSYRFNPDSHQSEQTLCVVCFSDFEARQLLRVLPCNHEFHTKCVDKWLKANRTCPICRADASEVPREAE

No constants are given. Whether binding was seen depends on the method and setting. In cells and extracts the contact can be indirect. A yes stands for co-enrichment or nearness to the bait. Other partners may have been found.

In the case of “RING finger 44 (RNF44) (from UniProt Q7L0R7 1-432)”, the binding entry was “binds”.

The record behind these values is publication PMC5709618.
